The values below come from publication PMC5784988.

Sequences of proteins named here, by UniProt entry; tags and fusion partners are left off.
UniProt P32114: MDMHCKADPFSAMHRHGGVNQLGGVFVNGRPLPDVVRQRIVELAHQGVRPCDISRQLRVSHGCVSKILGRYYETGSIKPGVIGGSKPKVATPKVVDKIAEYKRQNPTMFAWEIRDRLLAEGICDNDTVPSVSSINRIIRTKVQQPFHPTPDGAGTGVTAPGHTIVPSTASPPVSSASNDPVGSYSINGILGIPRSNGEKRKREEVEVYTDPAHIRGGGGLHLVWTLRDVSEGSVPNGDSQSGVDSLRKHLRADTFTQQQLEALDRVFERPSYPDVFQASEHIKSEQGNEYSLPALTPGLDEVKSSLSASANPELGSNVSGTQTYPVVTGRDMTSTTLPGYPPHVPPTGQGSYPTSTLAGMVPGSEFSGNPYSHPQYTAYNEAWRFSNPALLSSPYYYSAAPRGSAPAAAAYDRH
UniProt O09106: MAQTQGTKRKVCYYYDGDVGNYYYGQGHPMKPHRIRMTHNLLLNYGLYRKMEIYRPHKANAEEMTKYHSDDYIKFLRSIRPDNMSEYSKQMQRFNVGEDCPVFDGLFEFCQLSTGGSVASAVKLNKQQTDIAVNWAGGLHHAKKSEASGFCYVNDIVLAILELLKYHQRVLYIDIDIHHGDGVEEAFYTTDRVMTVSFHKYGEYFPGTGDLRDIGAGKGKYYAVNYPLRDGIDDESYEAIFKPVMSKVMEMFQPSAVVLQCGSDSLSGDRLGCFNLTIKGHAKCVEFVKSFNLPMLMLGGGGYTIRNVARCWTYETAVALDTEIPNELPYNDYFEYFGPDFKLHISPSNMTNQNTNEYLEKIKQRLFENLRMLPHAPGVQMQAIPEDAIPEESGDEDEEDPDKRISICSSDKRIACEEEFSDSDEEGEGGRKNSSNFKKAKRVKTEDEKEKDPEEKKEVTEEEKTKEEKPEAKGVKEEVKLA
UniProt P70288: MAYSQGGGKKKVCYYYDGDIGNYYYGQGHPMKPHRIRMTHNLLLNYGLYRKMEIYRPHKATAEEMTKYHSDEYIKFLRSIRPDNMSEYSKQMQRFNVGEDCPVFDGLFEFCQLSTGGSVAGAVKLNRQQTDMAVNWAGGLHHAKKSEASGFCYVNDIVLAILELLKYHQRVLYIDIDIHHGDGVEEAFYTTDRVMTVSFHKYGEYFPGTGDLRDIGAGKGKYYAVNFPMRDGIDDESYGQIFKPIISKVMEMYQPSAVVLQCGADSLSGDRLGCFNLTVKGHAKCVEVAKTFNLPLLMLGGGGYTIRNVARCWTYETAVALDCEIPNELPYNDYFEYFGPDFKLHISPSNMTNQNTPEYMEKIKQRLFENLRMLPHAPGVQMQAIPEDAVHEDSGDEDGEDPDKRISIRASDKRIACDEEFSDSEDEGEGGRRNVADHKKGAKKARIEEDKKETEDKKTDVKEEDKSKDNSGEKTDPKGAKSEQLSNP
UniProt Q6PDQ2: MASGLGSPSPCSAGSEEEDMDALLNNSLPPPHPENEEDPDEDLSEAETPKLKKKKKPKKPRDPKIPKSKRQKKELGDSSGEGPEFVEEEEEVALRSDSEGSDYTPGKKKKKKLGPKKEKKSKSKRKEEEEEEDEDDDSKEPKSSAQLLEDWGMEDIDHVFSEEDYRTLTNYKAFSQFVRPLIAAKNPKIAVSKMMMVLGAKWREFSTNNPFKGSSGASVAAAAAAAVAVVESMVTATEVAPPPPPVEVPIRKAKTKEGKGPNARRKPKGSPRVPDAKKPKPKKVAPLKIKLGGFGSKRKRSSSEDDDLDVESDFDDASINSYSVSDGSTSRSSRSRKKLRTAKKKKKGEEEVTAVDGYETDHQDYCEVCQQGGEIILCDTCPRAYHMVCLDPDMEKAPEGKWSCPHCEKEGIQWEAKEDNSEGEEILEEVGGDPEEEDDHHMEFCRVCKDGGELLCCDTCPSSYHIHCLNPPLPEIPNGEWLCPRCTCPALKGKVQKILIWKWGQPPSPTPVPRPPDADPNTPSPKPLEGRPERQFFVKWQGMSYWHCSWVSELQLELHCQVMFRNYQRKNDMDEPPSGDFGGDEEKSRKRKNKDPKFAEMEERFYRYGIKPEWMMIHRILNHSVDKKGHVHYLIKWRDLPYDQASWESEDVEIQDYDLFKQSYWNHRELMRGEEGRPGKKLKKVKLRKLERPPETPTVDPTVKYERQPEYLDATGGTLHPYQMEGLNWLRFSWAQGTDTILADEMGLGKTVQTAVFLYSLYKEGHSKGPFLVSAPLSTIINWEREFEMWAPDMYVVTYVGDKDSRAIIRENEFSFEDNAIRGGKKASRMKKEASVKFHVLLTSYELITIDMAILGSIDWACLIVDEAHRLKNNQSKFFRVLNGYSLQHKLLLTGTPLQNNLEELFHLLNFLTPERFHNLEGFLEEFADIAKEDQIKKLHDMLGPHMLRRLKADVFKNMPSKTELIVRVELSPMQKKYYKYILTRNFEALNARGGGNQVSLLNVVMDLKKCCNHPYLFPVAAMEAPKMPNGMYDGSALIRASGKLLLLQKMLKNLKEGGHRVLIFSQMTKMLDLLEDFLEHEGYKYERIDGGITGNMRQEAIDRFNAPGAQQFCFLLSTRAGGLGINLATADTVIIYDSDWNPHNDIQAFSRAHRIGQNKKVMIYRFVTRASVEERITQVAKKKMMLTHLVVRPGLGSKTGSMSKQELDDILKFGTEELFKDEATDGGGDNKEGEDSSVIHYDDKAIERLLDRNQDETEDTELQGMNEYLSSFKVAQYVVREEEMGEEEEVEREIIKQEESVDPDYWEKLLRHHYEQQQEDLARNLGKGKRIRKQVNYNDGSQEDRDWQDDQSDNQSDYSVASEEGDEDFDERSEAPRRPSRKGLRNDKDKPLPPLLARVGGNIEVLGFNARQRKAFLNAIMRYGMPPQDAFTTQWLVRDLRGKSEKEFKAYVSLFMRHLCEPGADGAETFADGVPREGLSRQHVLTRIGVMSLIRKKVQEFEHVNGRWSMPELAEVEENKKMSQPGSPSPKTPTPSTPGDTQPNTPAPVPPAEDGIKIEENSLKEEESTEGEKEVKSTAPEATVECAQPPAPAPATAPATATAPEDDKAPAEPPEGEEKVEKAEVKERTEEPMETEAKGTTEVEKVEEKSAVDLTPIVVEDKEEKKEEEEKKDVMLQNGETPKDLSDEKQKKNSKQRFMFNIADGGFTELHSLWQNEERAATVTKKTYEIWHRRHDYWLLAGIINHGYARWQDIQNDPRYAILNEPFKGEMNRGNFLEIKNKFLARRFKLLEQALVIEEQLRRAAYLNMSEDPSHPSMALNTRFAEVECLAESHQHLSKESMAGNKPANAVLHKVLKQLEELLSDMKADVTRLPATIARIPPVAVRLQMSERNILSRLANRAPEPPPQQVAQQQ
UniProt Q8K4B0: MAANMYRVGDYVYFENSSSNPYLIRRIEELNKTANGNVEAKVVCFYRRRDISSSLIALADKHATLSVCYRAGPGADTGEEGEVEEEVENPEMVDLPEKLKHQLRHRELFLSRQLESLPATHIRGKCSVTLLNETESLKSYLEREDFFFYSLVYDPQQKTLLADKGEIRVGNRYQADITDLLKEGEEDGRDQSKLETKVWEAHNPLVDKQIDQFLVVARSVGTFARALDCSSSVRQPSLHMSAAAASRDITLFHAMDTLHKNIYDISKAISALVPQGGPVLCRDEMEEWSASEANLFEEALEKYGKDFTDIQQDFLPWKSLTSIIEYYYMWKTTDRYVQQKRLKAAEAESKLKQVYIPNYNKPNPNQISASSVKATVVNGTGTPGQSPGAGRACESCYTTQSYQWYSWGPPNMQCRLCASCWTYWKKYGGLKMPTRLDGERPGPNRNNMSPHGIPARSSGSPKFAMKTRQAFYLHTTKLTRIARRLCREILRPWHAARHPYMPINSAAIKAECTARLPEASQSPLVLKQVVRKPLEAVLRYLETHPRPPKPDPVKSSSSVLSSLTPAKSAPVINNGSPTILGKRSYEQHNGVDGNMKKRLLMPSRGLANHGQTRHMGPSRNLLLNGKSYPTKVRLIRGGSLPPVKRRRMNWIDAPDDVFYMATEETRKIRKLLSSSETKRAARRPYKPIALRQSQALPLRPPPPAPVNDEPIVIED

Results are given in words; binding and its absence hold for the method and conditions named. Binding seen in cells or lysates may run through a third protein. Some results given as binding are weak or reduced against the parent protein; the word gives no strength.

This experiment addresses Pax2 (mouse (endogenous in VOT-N33)) (UniProt P32114). Briefly: co-IP; nuclear extract of undifferentiated N33 cells, pre-cleared with protein G sepharose; immunoprecipitation with anti-Pax2 or anti-LSD1 antibody overnight, protein G Sepharose 2 h at 4°C; washes in 10 mM Tris-HCl pH 7.5, 75 mM NaCl, 1 mM EDTA, 6% glycerol, 1% NP-40, 1 mM DTT; western blot; rabbit IgG as negative control.
“HDAC1 (from UniProt O09106 1-482) (enzyme)”: the binding result is listed as “binds”.

With “HDAC2 (from UniProt P70288 1-488) (enzyme)”, the binding entry is given as “binds”.

For the substance “chromodomain-helicase-DNA-binding protein 4 (CHD4) (from UniProt Q6PDQ2 1-1915)”, the binding entry is “binds”.

Consider “metastasis-associated 1 (MTA1) (from UniProt Q8K4B0 1-715)”, for which the binding entry was “binds”.
